A short description of this assay: qHTS Assay for Lipid Storage Modulators in Drosophila S3 Cells.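 On cell number change: cells counted by Cell Tracker Red CMTPX staining in the red channel.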 The conditions noted are these: BODIPY lipid droplet fluorescence, 18-24 h; for cell number change: measured here: cell count max response, cells fed with added oleic acid. In short, it runs like this:
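Drosophila S3 cells loaded with oleic acid (400 uM, as added) and compounds at several concentrations; lipid droplets imaged by 488-nm laser-scanning cytometry, 500–530 nm intensity and object ratio to cell channel. Percent activity normalized to 20 uM Triacsin C.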
Background: qHTS replaces the single test concentration by a dilution series.

The mark [1] stands for this setting: measured here: lipid fluorescence (Fed channel) AC50, cells fed with added oleic acid.
[2] abbreviates: measured here: cell number channel AC50, cells fed with added oleic acid.

The structures appear in SMILES notation. Some of the results follow. Shown are side measurements of this screen, not its main read-out; they come without a call. Compounds called inactive in the main read-out are mostly missing here. Words in brackets tell the shape of the fitted curve; partial curves, single points and poor fits give uncertain potencies.

The term AC50 denotes the midpoint of the concentration-response curve, whichever way the signal moves. Read a high AC50 as weaker potency. For `CCC(=O)N(CCCN(C)C)c1nc(-c2cc(OC)ccc2OC)cs1`, the cell number change was -27.9%. The AC50 under setting [1] was 6.51 µM [falling, single point].
Consider `COc1ccc2[nH]c3c(NCCCN4CCCC4=O)ncnc3c2c1`, for which the cell number change stood at 13.9%. In addition, the AC50 under setting [1] is 16.4 µM [falling, partial curve].
For the compound `Cc1ccccc1N(CC(=O)NCC1CCCO1)C(=O)CNS(=O)(=O)c1ccc(F)cc1` (stereo not drawn), the cell number change came out at 12.9%. Also, the AC50 under setting [1] is 6.51 µM [falling, partial curve].
On to `CCN(CC(=O)Nc1c(F)cccc1F)C(=O)c1cccnc1Sc1ccccc1`, for which the cell number change is -26.7%. In addition, the AC50 under setting [1] was 32.6 µM [falling, partial curve, poor fit].
On to `COC(=O)c1[nH]c2ccccc2c1NC(=O)C(C)N1CCN(C(=O)c2ccco2)CC1` (stereo not drawn), for which the cell number change was -5.45%. The AC50 under setting [1] was 0.651 µM [falling, single point].
For `Cc1ccc(C(=O)OCC(=O)N(C)C2CCS(=O)(=O)C2)cc1S(=O)(=O)N1CCOCC1` (stereo not drawn), the cell number change was found to be 0.24%. The AC50 under setting [1] is 3.66 µM [falling, single point].
Consider `O=C(O)COc1ccc(/C=N/Nc2nc(Nc3ccccc3)nc(N3CCCCC3)n2)cc1`, for which the half-maximal activity concentration (AC50) under setting [2] is 0.00411 µM [rising, partial curve, poor fit].
In the case of `Fc1ccc(Cn2nnc(-c3ccc(CN4CCOCC4)cc3)n2)cc1`, the cell number change was -4.3%. Also, under setting [1], the AC50 was 0.517 µM [falling, single point].
On to `O=S(=O)(c1ccc(C2=CSC3=NCCN23)cc1)N1CCOCC1`, for which the cell number change was -27.1%. In addition, under setting [1], the AC50 was 5.8 µM [falling, partial curve].
Take `O=C(CSCc1c(Cl)cccc1Cl)NN=C1CCCC1`: the cell number change was 33.3%. The AC50 under setting [2] is 32.6 µM [rising, single point].
For the compound `CN(C)C(=O)c1cc(Br)ccc1Cl`, the AC50 under setting [1] was 29.1 µM [falling, single point].
As for `CS(=O)(=O)NCCCNc1c(Cl)cccc1[N+](=O)[O-]`, the cell number change was -21.7%. The AC50 under setting [1] was 0.00517 µM [falling, full curve, poor fit].
For the compound `O=C(Nc1nncs1)c1ccc(N2C(=O)C3C4C=CC(C4)C3C2=O)cc1` (stereo not drawn), the cell number change is -30.8%. Moreover, under setting [2], the AC50 is 0.13 µM [falling, full curve, poor fit]. Under setting [1], the AC50 was 0.651 µM [falling, full curve, poor fit].
On to `CN(C)c1ccc(/C=N/NC(N)=S)cc1[N+](=O)[O-]`, for which the cell number change is 29.6%.
Take `COc1ccc(-n2c(C)nc3sc4c(c3c2=O)CCCC4)cc1`: the cell number change stood at 1.78%.
With `CN1CCN(c2nc(C#N)cc(-c3ccccc3)n2)CC1`, the cell number change was 8.32%. For the same compound, the AC50 under setting [2] was 0.0651 µM [rising, partial curve, poor fit].
Turning to `N=c1c(C(=O)NC2CCCCC2)cc2c(=O)n3ccccc3nc2n1Cc1ccco1`, the cell number change is 29.5%.
In the case of `O=S(=O)(NCc1ccco1)c1ccc(Cl)nc1`, the cell number change was -8.22%. In addition, the AC50 under setting [1] was 9.2 µM [rising, partial curve, poor fit].
On to `O=C(CCS(=O)(=O)c1cc2c(cc1Cl)NC(=O)CO2)NCCc1ccccc1`, for which the cell number change was -25.7%. In addition, the AC50 under setting [1] is 29.1 µM [rising, single point].
As to `COc1ccc2c(c1)Cc1sc(NC(=O)c3cccnc3)nc1-2`, the AC50 under setting [1] was 2.31 µM [rising, partial curve].
On to `Cc1ccc(NC(=O)CN(C)S(=O)(=O)c2ccc(Cl)s2)c(O)c1`, for which the cell number change was 5.57%. The AC50 under setting [2] is 0.731 µM [falling, single point]. Besides, the AC50 under setting [1] was 0.731 µM [falling, single point].
For `CCOC(=O)NC(=O)COC(=O)c1ccc(O)cc1`, the cell number change was -78.3%. Moreover, the AC50 under setting [2] is 29.1 µM [falling, single point]. Under setting [1], the AC50 was 29.1 µM [falling, partial curve].
As to `CC(=O)Nc1ccc(NC(=O)C2CCN(C(=O)c3ccc([N+](=O)[O-])cc3)CC2)cc1`, the AC50 under setting [1] is 3.26 µM [falling, partial curve].
With `O=C1CC(c2ccccc2)Oc2cc(O)cc(O)c21` (stereo not drawn), the cell number change is -21.7%. For the same compound, the AC50 under setting [1] was 1.84 µM [falling, full curve].
Take `CCOC(=O)c1cnc(-c2ccccc2)nc1C(F)(F)F`: the cell number change was -1.13%. Under setting [1], the AC50 is 0.116 µM [falling, full curve, poor fit].
Regarding `CC(=O)N1CCN(C(=O)c2ccc(-c3ccccc3Cl)o2)CC1`, the cell number change amounted to 6.25%. Besides, the AC50 under setting [1] is 0.00461 µM [rising, full curve, poor fit].
On to `N=C1/C(=C\c2ccc(OC(=O)c3ccccc3)cc2)C(=O)N=C2SC(N3CCOCC3)=NN12`, for which the cell number change was 1.73%.
For the compound `Cc1ccc(S(=O)(=O)N2CCN(C(=O)c3c(-c4ccccc4)noc3C)CC2)cc1`, the AC50 under setting [1] is 0.116 µM [rising, single point].
`N#Cc1c(NC(=O)c2cc(-n3cnnc3)ccc2Cl)sc2c1CCCC2`: the cell number change was determined as 74.7%. Moreover, the AC50 under setting [2] is 7.31 µM [rising, partial curve].
As for `Nc1nnc(CC(=O)N2CCCCC2)s1`, the cell number change was -6.49%. For the same compound, the AC50 under setting [1] was 0.651 µM [falling, full curve, poor fit].
As for `Cc1nn(CCCC(=O)Nc2ccccn2)c(C)c1[N+](=O)[O-]`, the cell number change is -9.01%. For the same compound, the AC50 under setting [2] is 0.461 µM [rising, single point].
As for `Cc1cc(C)cc(NS(=O)(=O)c2ccc3[nH]c(=O)[nH]c3c2)c1`, the cell number change was -73.9%. In addition, the half-maximal activity concentration (AC50) under setting [2] is 20.6 µM [falling, single point].
On to `O=C(O)CSC1=NC(=Nc2cccc(Cl)c2)C2(CCCCC2)N1c1ccccc1`, for which the cell number change was -10.4%. Further, the AC50 under setting [1] was 0.058 µM [falling, full curve, poor fit].
Turning to `Cc1cc(C(=O)NNC(=S)Nc2ccccc2C)cs1`, the cell number change worked out at 38.4%. The AC50 under setting [2] was 5.8 µM [rising, full curve]. In addition, the AC50 under setting [1] was 5.17 µM [rising, partial curve].
Take `CCn1nnnc1SCC(=O)N(C)C1CCS(=O)(=O)C1` (stereo not drawn): the cell number change amounted to 19.4%. The AC50 under setting [1] was 2.31 µM [rising, full curve, poor fit].
In the case of `CC(C)=CCN1CCN(Cc2cccc3c2OCO3)CC1CCO` (stereo not drawn), the cell number change was determined as 5.24%. For the same compound, under setting [1], the AC50 was 0.92 µM [falling, full curve, poor fit].
Take `O=C(Nc1ccc(Br)cc1)c1csc(-c2ccncc2)n1`: the cell number change is -24%. Under setting [2], the AC50 was 0.164 µM [falling, full curve, poor fit].
Turning to `CC1CN(C(=O)CS(=O)(=O)Cc2ccccc2)CC(C)O1` (stereo not drawn), the cell number change was -2.56%.
On to `O=C(Nc1nc2n(n1)C(c1ccccc1)C=C(c1ccccc1)N2)c1ccco1` (stereo not drawn), for which the cell number change is -15.1%. Under setting [1], the AC50 is 6.51 µM [rising, partial curve, poor fit].
As for `COc1ccccc1CNC(=O)CCc1cn(C)c2ccccc12`, the cell number change was determined as 43.7%.
Take `CC(C)CCN(C(=O)c1ccc(N2CCCC2=O)cc1)c1c(N)n(Cc2ccccc2)c(=O)[nH]c1=O`: the cell number change is 1.54%. For the same compound, under setting [2], the AC50 is 0.184 µM [falling, full curve, poor fit]. Moreover, under setting [1], the AC50 was 4.11 µM [falling, partial curve, poor fit].
`Cc1cccc(N2CCN(C(=O)c3nn(C)c4c3CS(=O)(=O)c3ccccc3-4)CC2)c1C`: the cell number change was -9.7%. In addition, the AC50 under setting [1] was 29.1 µM [rising, single point].
Regarding `Cc1ccc(NC(=O)CN(C)C(=O)Cn2ccsc2=N)cc1`, the cell number change worked out at 15.7%. In addition, the AC50 under setting [1] was 29.1 µM [rising, single point].
Consider `O=C(COC(=O)c1ccc(Br)cc1)Nc1cccnc1Cl`, for which the cell number change stood at 25.6%. Besides, the AC50 under setting [2] is 0.82 µM [rising, full curve, poor fit]. The AC50 under setting [1] is 0.58 µM [rising, full curve].
Take `CCN(CC)S(=O)(=O)c1ccc(NN)nc1`: the cell number change is -3.52%. The AC50 under setting [1] was 20.6 µM [rising, single point].
Regarding `COc1ccc(-n2cc(-c3ccccc3)c3c(N4CCN(CCO)CC4)ncnc32)cc1`, the AC50 under setting [1] is 6.51 µM [falling, single point].
In the case of `CCc1ccc(C2(O)CC(C(F)(F)F)=NN2C(=O)Cc2ccc([N+](=O)[O-])cc2)cc1` (stereo not drawn), the cell number change is -45.7%. Moreover, the AC50 under setting [2] is 29.1 µM [falling, single point]. Under setting [1], the AC50 is 29.1 µM [falling, single point].
In the case of `COc1ccccc1NNC(=O)C(O)(c1ccccc1)c1ccccc1`, the cell number change came to 9.93%. Moreover, under setting [1], the AC50 was 2.59 µM [rising, partial curve].
As to `O=C(NC(=S)Nc1cccc(O)c1)c1ccco1`, the cell number change worked out at 1.19%. In addition, under setting [2], the AC50 was 2.91 µM [falling, partial curve].
In the case of `COC(=O)c1ccsc1NC(=O)CCS(=O)(=O)c1ccc(Cl)cc1`, the cell number change came out at 30.6%. Besides, the AC50 under setting [2] was 1.84 µM [rising, full curve]. Besides, the AC50 under setting [1] is 2.06 µM [rising, full curve].
As to `CCc1ccc(NC(=O)C2CCCN(S(C)(=O)=O)C2)cc1` (stereo not drawn), the cell number change was -32.1%. Also, under setting [2], the AC50 was 29.1 µM [falling, single point].
As for `Cc1onc(-c2ccccc2)c1C(=O)NCc1cccs1`, the cell number change stood at 56.3%. For the same compound, under setting [2], the half-maximal activity concentration (AC50) was 29.1 µM [rising, single point].
For the compound `CC(=O)c1ccc(S(=O)(=O)NC2CC2)cc1`, the cell number change turned out to be 7.66%. In addition, the AC50 under setting [1] is 29.1 µM [rising, single point].
Turning to `CCCN(c1nc(C)cc(OC)n1)S(=O)(=O)c1ccccc1`, the cell number change was determined as 19%. In addition, the AC50 under setting [2] was 0.231 µM [falling, full curve, poor fit].
Regarding `COCCCNC(=O)CCCOc1ccccc1`, the cell number change stood at 98.6%. In addition, under setting [2], the half-maximal activity concentration (AC50) is 25.9 µM [rising, partial curve].
Regarding `N#CCSc1nnc(-c2ccccc2)c(-c2ccccc2)n1`, the cell number change is -16.6%. The AC50 under setting [1] is 0.164 µM [rising, full curve, poor fit].
As to `Fc1cccc(CNCC2CCCO2)c1` (stereo not drawn), the cell number change was -10.1%. Under setting [1], the AC50 is 4.11 µM [rising, single point].
`CCOc1ccc(C(=O)Nc2ccc(CN3CCOCC3)cc2)cc1Cl`: the cell number change was found to be 12.6%.
On the same count and under the same terms, next, `Cc1ccc2cc(C)c3nnc(SCC(=O)c4cccs4)n3c2c1C`: -1.51%; `COc1ccc(OC)c(NC(=O)CS(=O)(=O)c2ccccc2)c1`: 6.02%.
`O=C(CCN1C(=O)C2C3C=CC(C3)C2C1=O)Nc1ccc(F)cc1` (stereo not drawn): the cell number change was 50.8%. Besides, the AC50 under setting [2] was 16.4 µM [rising, single point]. For the same compound, under setting [1], the AC50 was 20.6 µM [rising, partial curve].
As to `O=C(Nc1ccc(Nc2ccccc2)cc1)c1cc([N+](=O)[O-])ccc1Cl`, the cell number change was -47%. The AC50 under setting [2] was 8.2 µM [falling, partial curve].

These data come from PubChem BioAssay AID2685 (National Center for Advancing Translational Sciences (NCATS), 2010).
